Results published in patent publication US20250312304A1, “RETINOL ACID PATHWAY MODULATORS FOR TREATMENT OF CONGENITAL VASCULAR MALFORMATION” (University of South Carolina, priority 2024, published 2025).
At least one structure is not confirmed: it was looked up by name or label, or the drawing left a doubt.

How the values were obtained:
[1] = system: PWB resistant iPSC; experiment: Laser/PDT response (cell death) of patient-derived laser-resistant PWB iPSCs; format: cell-based, human
[2] = biological target: kinase phenotypes; experiment: Kinase arrays in response to PDT; format: cell-based; conditions: combined with PDT
[3] = system: apoptotic pathways; experiment: Apoptotic array in laser resistant iPSCs after PDT; format: cell-based, human

SMILES: CCC(C)n1ncn(-c2ccc(N3CCN(c4ccc(OCC5COC(Cn6cncn6)(c6ccc(Cl)cc6Cl)O5)cc4)CC3)cc2)c1=O (centres unmarked) [itraconazole]
- efficacy of PDT (cell death photos, FIG. 17) ([1]; combined with PDT): improve the efficacy of PDT
- laser response in PWB/PWS resistant iPSC ([1]; combined with laser/PDT treatment): improved laser response
- kinase phenotypes in response to PDT (kinase arrays, FIG. 19) [2]: reverses kinase phenotypes
- activation of apoptotic pathways induced by PDT ([3]; combined with PDT): exacerbated activation of apoptotic pathways
- apoptotic sensitivities to PDT (apoptotic array, FIG. 18) ([3]; laser resistant iPSCs): increases apoptotic sensitivities to PDT
